In patent publication US20040063681A1, “Methods for using gold (III) complexes as anti-tumor and anti-HIV agents” (priority 2002, published 2004):
For part of these data: At least one structure is not confirmed: it was looked up by name or label, or the drawing left a doubt. Some results were stated once for a whole list of compounds, not compound by compound.

Experiments:
[1] = Control UV-vis titration with sodium dodecyl sulfate instead of DNA; format: binding; details: sodium dodecyl sulfate (0-5 μM) instead of DNA
Text: See Neidle, S. DNA structure and recognition; Oxford University Press: Oxford, 1994; 74-79.

calf thymus DNA [2] = test: UV-vis absorption titration with calf thymus DNA; format: binding; details: calf thymus DNA (0-5 μM), Tris buffer
Experimental: The calf thymus DNA was purchased from Sigma-Aldrich Chemical Co. and was purified by phenol-chloroform extraction. The DNA was dissolved in buffer (5 mM Tris, 5 mM NaCl, pH 7.2). The concentration (per base pair) of calf thymus DNA was determined spectrophotometrically on the basic of ε260, 13,200 M^−1cm^−1bp.
Absorption Titration. The binding interaction of the gold(III) porphyrins to duplex DNA has been studied by UV-vis spectroscopy.
where [ctDNA] is the concentration of DNA, Δεap═|εA−εB| in which εA=Aobs/[complex], and Δε=|εB−εF|. εB and εF correspond to the extinction coefficient of DNA-bound gold(III) porphyrin and the free gold(III) porphyrins, respectively.
The effect of temperature on the intrinsic binding constants was investigated. Using the van't Hoff equation (2): […]

calf thymus DNA [3] = test: Viscosity evaluation of DNA; details: (η/ηo)^1/3 vs binding ratio r
Text: Viscosity evaluation. The binding interaction of the gold(III) porphyrins can be further investigated by examining the change of DNA viscosity upon binding of the metalloporphyrin. If the metalloporphyrin binds to DNA by intercalation, this would cause chain elongation, unwinding and stiffening of the DNA helix as a consequence of untwisting of the base pairs and helical backbone needed to accommodate the intercalator.
For comparison, the viscosity profiles for ethidium bromide (intercalator) and Hoechst 33342 (minor groove binder) are also shown is FIG. 10.

plasmid DNA (pDR2) = test: Restriction endonuclease (ApaI) fragmentation assay; details: comparison compounds, lanes F and H of FIG. 8
Text: Binding of the metalloporphyrin onto a duplex DNA such as plasmid DNA (pDR2) is expected to occupy the binding site of the restriction enzyme ApaI, thereby inhibiting the enzymatic DNA digestion. See Ikeda et al., J. Am. Chem. Soc. 104:296-297 (1982).
After ApaI digestion, (lane B), three bands corresponding to 6.6, 4.4 and 2.0 kbp were observed.

100-bp DNA = test: Gel mobility shift assay; format: binding; details: 2% agarose gel electrophoresis

Structure (SMILES)	hypochromicity of the Soret band [1]	bathochromic shift of the Soret band (calf thymus DNA [2])	hypochromicity of the Soret band (calf thymus DNA [2])	change in viscosity of the DNA (calf thymus DNA [3])	effect on ApaI digestion of pDR2 (plasmid DNA (pDR2))	mobility of 100-bp DNA in agarose gel (100-bp DNA)
CCc1c(CC)c2[n]3c1C=c1c(CC)c(CC)c4[n]1[Au]31[n]3c(c(CC)c(CC)c3C=c3c(CC)c(CC)c([n]31)=C2)C=4 [Complex 1h]	< 10%	3-6 nm	20-50%			
CC[n+]1c(-c2ccccc2)c2cc(N)ccc2c2ccc(N)cc21 [ethidium bromide]				increases the viscosity of the DNA	complete inhibition of the DNA digestion	tailing effect
